Article PMC12005806
No constants are given. Whether binding was seen depends on the method and setting. Binding seen in cells or lysates may run through a third protein. Binding calls can cover weak binding; strength is not graded here.

Protein sequences, listed by entry. Tags and fused reporters are not part of them. Lines headed by an entry give the natural chain unless they say otherwise; changes in a name come on top.
UniProt P10749: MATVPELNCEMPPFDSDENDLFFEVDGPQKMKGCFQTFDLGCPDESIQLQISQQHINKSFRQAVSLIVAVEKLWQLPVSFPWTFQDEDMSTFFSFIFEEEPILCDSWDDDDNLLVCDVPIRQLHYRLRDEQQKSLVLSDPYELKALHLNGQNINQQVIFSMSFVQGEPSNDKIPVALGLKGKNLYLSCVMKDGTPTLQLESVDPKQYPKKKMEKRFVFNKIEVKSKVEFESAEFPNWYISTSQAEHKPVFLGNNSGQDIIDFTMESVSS

Biological target: IL-1β (co-immunoprecipitation of Figure S3C) (UniProt P10749)
Assay: co-IP; co-immunoprecipitation of Ufl1 with inflammasome components (Figure S3C); cells and constructs not told in the text shown

binding: binds weakly
B1: Ufl1 (co-immunoprecipitation of Figure S3C) (protein, UniProt Q8CCJ3 1-793)
chain: MADAWEEIRRLAADFQRAQFAESTQRLSERNCIEIVNKLISQKQLEVVHTLDGKEYITPAQISKEMRDELHVRGGRVNIVDLQQVINVDLTHIESRVSDIIKSEKHVQMVLGQLIDENYLDQLSEEVNDKLQESGQVTVSELCKAYDLPGDFLTQALTQRLGRIINGHLDLDNRGVIFTEAFVARHKARIRGLFSAITRPTPVNSLVSKYGFQEQLLYSVLEDLVSTGRLRGTVVGGRQDKAVFVPDIYSRTQSTWVDSFFRQNGYLEFDALSRLGIPDAVNYIKKRYKNTQLLFLKATCVGQGLVDQVEASVEEAISSGTWVDISPLLPSSLSVEDAAMLLQQVMRPFGKLASAIVFSDTVVVSEKFITDCTGLFSERMHQKAEKEMKNNPVHLITEEDLKQISILESVNTSKKDKKDERRKKATEGSGSVRGGGGGNAREYKIKKTKKKGRKDEDSDDESQSSHGGKKKPDITFMFQDEIEDCLRKHIQDAPEEFISELAEYLIKPLNKMYLEVVRSVFMSSTSASGTGRKRTIKDLQEEVSNLYNNIRLFEKGMKYFADDTQTALTKHLLKTVCTDITNLMFNFLASDFLMAVEEPAAITSDIRKKILSKLTEETKVALTKLHNSLNEKSIEDFLSCLDSATEACDIMVKKGDKKRERQILFQHRQALCEQLKVTEDPALILHLTAVLLFQLSTHSMLHAPGRCVPQIIAFLHSKIPEDQHTLLVKYQGLVVKQLVSQNKKTGQGEDPSSDELDKEQHDVTNATRKELQELSLSIKDLVLKSRKSSVTEE
